Earlier results in patent US10457740B1, “Methods and compositions for treating cancer using P2RX2 inhibitors” (Flagship Pioneering Innovations V, Inc., priority 2018, dated 2019).
Some entries share one result that the patent states for a list of compounds. For at least one compound, name, drawing or mass did not settle the structure.

Tested on: P2RX2
Details: P2RX2-specific inhibitors

Compound | IC50 [µM]
COc1cc(C(C)C)c(Oc2cnc(N)nc2N)cc1Cl [CHEMBL448525] | < 10
CCOP(=O)(Cc1ccc(Nc2cc(S(=O)(=O)O)c(N)c3c2C(=O)c2ccccc2C3=O)cc1)OCC [CHEMBL596982] | < 10
Nc1c(S(=O)(=O)O)cc(Nc2ccc(S(=O)(=O)O)c(Nc3nc(Cl)nc(Cl)n3)c2)c2c1C(=O)c1ccccc1C2=O [CHEMBL1672104] | < 10
